Measured values taken from patent publication US20080004192A1, “Composition” (Givaudan SA, priority 2004, published 2008).

Test: Perfume deposition on hair swatches, pentane extraction and GC-MS
Conditions: wet stage, Example 2, silicone-solubilised fragrance (Sample 4 vs Sample 3)

Compound | Deposition of particular fragrance component increased by a factor
CO[C@]1(C)CC[C@@]23C[C@@H]1C(C)(C)[C@@H]2CC[C@H]3C [cedryl methyl ether] | 11
CC1COCc2cc3c(cc21)C(C)(C)C(C)C3(C)C (stereo not drawn) [Galaxolide™] | 45
C=CC(C)(O)CCC=C(C)C (stereo not drawn) [Linalool] | 45
